Experimental data taken from article PMC11111636 (EJNMMI Radiopharmacy and Chemistry, 2024).

Assay: general procedure: Fmoc solid-phase peptide synthesis; 2-chlorotrityl chloride resin; HATU, DIPEA

Substance: N3-Py-DOTAGA-D-Phe-Cys-Tyr-D-Trp-Lys-Thr-Cys-Thr-OH
- isolated yield (whole synthesis): 6%

Substance: N3-Py-DOTAGA-D-Phe-cyclo[Cys-Tyr-D-Trp-Lys-Thr-Cys]-Thr-OH
- cyclisation yield (cyclisation step, on linear peptide 9): 63%
